Results are given in words; binding and its absence hold for the method and conditions named. A result given as binding can be weak or reduced; the word gives no strength.
Target: Cynomolgus CD73 ECD (cynomolgus)
Test: SPR (ProteOn XPR36), antibody captured by anti-human Fc, CD73 ECD in the mobile phase

binding: binds
B1: MEDI9447 (antibody, human IgG1, lambda, V domains shown)
VH: EVQLLESGGGLVQPGGSLRLSCAASGFTFSSYAYSWVRQAPGKGLEWVSAISGSGGRTYYADSVKGRFTISRDNSKNTLYLQMNSLRAEDTAVYYCARLGYGRVDEWGRGTLVTVSS
VL: QSVLTQPPSASGTPGQRVTISCSGSLSNIGRNPVNWYQQLPGTAPKLLIYLDNLRLSGVPDRFSGSKSGTSASLAISGLQSEDEADYYCATWDDSHPGWTFGGGTKLTVLG

— patent publication US20180125973A1
